The subject of the series is membrane testosterone receptors in LNCaP cells. In words: Saturation binding of [3H]testosterone to LNCaP cell membranes. Also noted: species or system human. How it is done: Cells, cultured in 150 cm^2 flasks without serum, were washed twice with phosphate-buffered saline (PBS), removed by scraping and centrifuged at 1500 rpm. Pelleted cells were homogenized by sonication in 50 mM Tris-HCl buffer pH 7.4 containing freshly added protease inhibitors (10 μg/ml PMSF and 1 μg/ml aprotinin). Unbroken cells were removed by centrifugation at 2500 g for 15 min. Membranes were obtained by centrifugation at 45,000 g for 1 hour, and washed once by the same buffer. Protein concentration was measured by the method of Bradford.
Saturation binding experiments were performed in a final volume of 0.1 ml, containing cell membranes at a final protein concentration of 2 mg/ml and at least 6 different concentrations of [^3H]testosterone (ranging 2-50 nM) without (total binding) or with (non-specific binding) a 100-fold molar excess of unlabelled androgen (DHT). […] In both types of binding experiments, after an overnight incubation at 4° C., bound radioactivity was separated by filtration under reduced pressure through GF/B filters previously soaked in 0.5% polyethylenimine (PEI) in water and rinsed three times with ice-cold Tris-HCl buffer. Filters were mixed with 4 ml scintillation cocktail and the bound radioactivity was counted in a scintillation counter (Tricarb, Series 4000, Packard) with 60% efficiency for Tritium. […]

Consider `C[C@]12CC[C@H]3[C@@H](CCC4=CC(=O)CC[C@@]43C)[C@@H]1CC[C@@H]2O` [testosterone], for which the “approximate number of sites/cell” value (LNCaP cells) is reported as approximately 13340 sites/cell. The “number of binding sites” value (LNCaP membranes, Scatchard analysis) stood at 144.3 fmoles/mg protein.

For the origin of these results see patent publication US7358379B2, “Steroid conjugates, preparation thereof and the use thereof” (Bionature E.A. Limited, priority 2002, dated 2008).
